Source: patent US20050037420A1 (published 2005)
Residue numbers refer to the chain shown, from its start. Results are given in words; binding and its absence hold for the method and conditions named. Some binding calls cover weakened binding; strength is not graded here.

Amino acid sequences for entries named in this document (tags omitted).
UniProt P36292: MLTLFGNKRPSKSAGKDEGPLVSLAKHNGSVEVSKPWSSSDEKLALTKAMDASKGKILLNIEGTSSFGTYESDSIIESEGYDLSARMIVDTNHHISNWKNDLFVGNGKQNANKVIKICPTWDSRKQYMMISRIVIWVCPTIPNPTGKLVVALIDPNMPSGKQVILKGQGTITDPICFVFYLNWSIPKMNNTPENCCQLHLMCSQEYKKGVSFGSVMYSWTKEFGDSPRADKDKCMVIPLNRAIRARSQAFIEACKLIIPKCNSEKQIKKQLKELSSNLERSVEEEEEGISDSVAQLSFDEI

What was measured:
[1] = biological target: full-length NSM protein (putative movement protein of Tomato Spotted Wilt Virus) obtained from the IMPACT expression system (Tomato Spotted Wilt Virus) (UniProt P36292); assay: capture ELISA, soluble NSM captured by rabbit polyclonal antibodies (FIG. 5B)
[2] = biological target: NSM protein from inclusion bodies (Tomato Spotted Wilt Virus) (UniProt P36292); assay: indirect ELISA, large-scale purified soluble scFv (FIG. 5A); told to react more strongly with this form than with soluble NSM
[3] = biological target: NSM protein from inclusion bodies (Tomato Spotted Wilt Virus) (UniProt P36292); assay: ELISA of bacterially expressed soluble scFvs; target told as either form of NSM
[4] = biological target: NSM protein from inclusion bodies (Tomato Spotted Wilt Virus) (UniProt P36292); assay: indirect ELISA, mini-scale expressed soluble scFv
[5] = biological target: NSM protein from inclusion bodies (Tomato Spotted Wilt Virus) (UniProt P36292); assay: indirect ELISA, large-scale purified soluble scFv (FIG. 5A); told to react less strongly with this form than with soluble NSM
[6] = biological target: full-length NSM protein (putative movement protein of Tomato Spotted Wilt Virus) obtained from the IMPACT expression system (Tomato Spotted Wilt Virus) (UniProt P36292); assay: capture ELISA, soluble NSM captured by rabbit polyclonal antibodies (FIG. 5B); told to react more strongly with soluble NSM than with NSM from inclusion bodies
[7] = biological target: NSM protein from inclusion bodies (Tomato Spotted Wilt Virus) (UniProt P36292); assay: indirect ELISA, large-scale purified soluble scFv (FIG. 5A)

Measured: binding

B1: scFv N12 (scFv)
scFv: AVTLDESGGGLQTPGGGLSLVCKASGFDFSSYDMVWVRQAPGKGLEWVAGISSGSGPNYGAAVKGRATISRDNGQSTVRLQLNNLRAEDTATYYCAKNEGADWCGHYYCSVAYIDAWGHGTEVTVSSGSTSGSGKPGPGEGSTKGAPALTQPSSVSANPGETVKITCSGGSGDHYGWFQQKSPGSAPVTVIYNNDNRPSDIPSRFSGSKSGSTHTLTITGVQVEDEAVYFCGNRDSSAGIFGAGTTLTVLGQP
notes: Soluble scFv, mini-scale (pHEN4II, c-myc tag) or large-scale (pTMZ1, IMAC purified) from E. coli; also called clone N12; not shown: C-terminal c-myc and his-6 tags from the expression vector
binds: [1] | [2] | [3] | [4]

B2: scFv N5 (scFv)
scFv: B1 scFv with G56V, N193K, D195E
notes: Soluble scFv, mini-scale (pHEN4II, c-myc tag) or large-scale (pTMZ1, IMAC purified) from E. coli; also called clone N5; not shown: C-terminal c-myc and his-6 tags from the expression vector
binds: [1] | [2] | [3] | [4]

B3: scFv N3 (scFv)
scFv: AVTLDESGGGLQTPGGGLSLVCKASGFSFSSYSMGWVRQAPGKGLEWVAGIGSSVIRTYYAPAVKGRATIPRDNGQSTVRLQLNDLRAEDTGTYYCAKESGSGKWFSIGQIDAWGHGTEVTVSSGSTSGSGKPGPGEGSTKGAPALTQPSSVSANPGGTVQITCSGGSGSYGWFQQKSPGSAPVTVIYSSDKRPSDIPSRFSGSKSGSTGTLTITGVQADDEAVYFCGSADSSHLGIFGAGTTLTVLGQP
notes: Soluble scFv, mini-scale (pHEN4II, c-myc tag) or large-scale (pTMZ1, IMAC purified) from E. coli; also called clone N3; not shown: C-terminal c-myc and his-6 tags from the expression vector
binds: [5] | [3] | [4] | [6]

B4: scFv N10 (scFv)
scFv: B3 scFv with S170N
notes: Soluble scFv, mini-scale (pHEN4II, c-myc tag) or large-scale (pTMZ1, IMAC purified) from E. coli; also called clone N10; not shown: C-terminal c-myc and his-6 tags from the expression vector
binds: [1] | [7] | [3] | [4]
